Measurements: patent US20230233577A1, “17Beta-ESTRADIOL/VITAMIN C MOLECULAR COMPLEX, PREPARATION METHOD, AND USE THEREOF” (ZHEJIANG MEDICINE CO., LTD.XINCHANG PHARMACEUTICAL FACTORY, priority 2020, published 2023)

System: ovariectomized female mice
Test: Femoral length and ratio of femoral ash weight to femoral length in ovariectomized female mice
Type: in vivo, ICR mice
Conditions: oral, 4 weeks, n = 11

For `C[C@]12CC[C@@H]3c4ccc(O)cc4CC[C@H]3[C@@H]1CC[C@@H]2O` [17β-estradiol], the “Femoral length (mean ± SD)” value (dose 0.23 μmol/kg/day) was 16.87 ± 0.34 mm and the “Femoral length (mean ± SD)” value (dose 2.3 μmol/kg/day) was 16.72 ± 0.35 mm.
